# According to US5292669A, “Agents for the detection of substrates with hydrolase activity” (Boehringer Mannheim GmbH, priority 1992, dated 1994):
# At least one structure is not confirmed: it was looked up by name or label, or the drawing left a doubt.
# Tested on: esterase from hog's liver
# Test: spot test: hydrolysis of substrate on buffer-oxidation agent paper, visual colour evaluation
# Assay type: biochemical
# Set-up: key: +: coloration; ++: strong coloration; +++: strong and rapid coloration
# Conditions: potassium ferricyanide, enzyme about 1000 U/ml., ambient temperature
# Protocol: In a spot test, there was investigated the hydrolysis of various compounds by appropriate hydrolases (aryl sulphatase, acidic and alkaline phosphatase, esterase, acetyl-β-O-glucosamidase and lipase). The base thereby liberated was simultaneously oxidized by potassium ferricyanide to the colored material and the color formation evaluated visually.
# The rate of hydrolysis was evaluated visually at pH 6.0, as well as at pH 9.0, by spotting a hydrolase solution on to a substrate-buffer-oxidation agent-paper. The enzyme concentration was about 1000 U/ml. and the test temperature was ambient temperature. The non-enzymatic hydrolysis with a 0.9% aqueous sodium chloride solution as sample was evaluated for the purpose of comparison.
# Impregnation solution: 100 mmole/liter potassium dihydrogen phosphate 10 mmole/liter potassium ferricyanide 2% Pluronic® F 68
# The pH value was adjusted to 6.0 with a 2N aqueous solution of potassium hydroxide.
# Impregnation solution: 100 mmole/liter glycine 10 mmole/liter potassium ferricyanide 2% Pluronic® 68
# The pH value was adjusted to 9.0 with a 2N aqueous solution of sodium hydroxide. […]
# The so impregnated buffer-oxidation agent papers were cut up into 8×2 cm. strips and post-impregnated with substrate solution. […] On to this substrate oxidation agent surface were then dosed on the hydrolase solutions and evaluated. […]
structure (smiles),measurement,setting,value
"COc1cc(-c2nc(-c3ccc(N(C)C)cc3)c(C)[nH]2)cc(OC)c1OC(C)=O [Example 4c, 4-[4-(4-Dimethylaminophenyl)-5-methyl-1H-imidazol-2-yl]-2,6-dimethoxyphenylacetate]",Coloration pH 6,pH 6.0 fleece,+++
same,Coloration pH 9,pH 9.0 fleece,+++
